Article PMC13551775
Results are given in words; binding and its absence hold for the method and conditions named. In cells and extracts the contact can be indirect. Some binding calls cover weakened binding; strength is not graded here. Sequences can lack the tags named with a protein.

Protein sequences, listed by entry. Tags and fused reporters are not part of them.
UniProt Q92841: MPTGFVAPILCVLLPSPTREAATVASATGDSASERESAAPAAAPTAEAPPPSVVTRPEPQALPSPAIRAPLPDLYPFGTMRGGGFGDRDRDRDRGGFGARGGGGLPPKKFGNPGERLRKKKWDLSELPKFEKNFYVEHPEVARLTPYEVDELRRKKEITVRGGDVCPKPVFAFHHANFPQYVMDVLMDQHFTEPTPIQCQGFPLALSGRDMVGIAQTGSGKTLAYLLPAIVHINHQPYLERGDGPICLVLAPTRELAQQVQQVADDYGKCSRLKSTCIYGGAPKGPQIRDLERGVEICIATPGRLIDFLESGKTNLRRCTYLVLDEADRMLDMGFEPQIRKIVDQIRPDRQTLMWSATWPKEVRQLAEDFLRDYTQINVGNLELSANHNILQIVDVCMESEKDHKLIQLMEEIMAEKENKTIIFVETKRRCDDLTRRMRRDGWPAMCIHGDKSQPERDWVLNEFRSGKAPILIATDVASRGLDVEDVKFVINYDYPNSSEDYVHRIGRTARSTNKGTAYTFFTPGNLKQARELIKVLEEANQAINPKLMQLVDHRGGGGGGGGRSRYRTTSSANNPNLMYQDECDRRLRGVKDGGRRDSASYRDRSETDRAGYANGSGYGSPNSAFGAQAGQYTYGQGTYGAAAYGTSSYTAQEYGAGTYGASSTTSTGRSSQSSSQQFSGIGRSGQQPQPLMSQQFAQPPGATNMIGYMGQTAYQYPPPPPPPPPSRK
UniProt Q9Y5B9: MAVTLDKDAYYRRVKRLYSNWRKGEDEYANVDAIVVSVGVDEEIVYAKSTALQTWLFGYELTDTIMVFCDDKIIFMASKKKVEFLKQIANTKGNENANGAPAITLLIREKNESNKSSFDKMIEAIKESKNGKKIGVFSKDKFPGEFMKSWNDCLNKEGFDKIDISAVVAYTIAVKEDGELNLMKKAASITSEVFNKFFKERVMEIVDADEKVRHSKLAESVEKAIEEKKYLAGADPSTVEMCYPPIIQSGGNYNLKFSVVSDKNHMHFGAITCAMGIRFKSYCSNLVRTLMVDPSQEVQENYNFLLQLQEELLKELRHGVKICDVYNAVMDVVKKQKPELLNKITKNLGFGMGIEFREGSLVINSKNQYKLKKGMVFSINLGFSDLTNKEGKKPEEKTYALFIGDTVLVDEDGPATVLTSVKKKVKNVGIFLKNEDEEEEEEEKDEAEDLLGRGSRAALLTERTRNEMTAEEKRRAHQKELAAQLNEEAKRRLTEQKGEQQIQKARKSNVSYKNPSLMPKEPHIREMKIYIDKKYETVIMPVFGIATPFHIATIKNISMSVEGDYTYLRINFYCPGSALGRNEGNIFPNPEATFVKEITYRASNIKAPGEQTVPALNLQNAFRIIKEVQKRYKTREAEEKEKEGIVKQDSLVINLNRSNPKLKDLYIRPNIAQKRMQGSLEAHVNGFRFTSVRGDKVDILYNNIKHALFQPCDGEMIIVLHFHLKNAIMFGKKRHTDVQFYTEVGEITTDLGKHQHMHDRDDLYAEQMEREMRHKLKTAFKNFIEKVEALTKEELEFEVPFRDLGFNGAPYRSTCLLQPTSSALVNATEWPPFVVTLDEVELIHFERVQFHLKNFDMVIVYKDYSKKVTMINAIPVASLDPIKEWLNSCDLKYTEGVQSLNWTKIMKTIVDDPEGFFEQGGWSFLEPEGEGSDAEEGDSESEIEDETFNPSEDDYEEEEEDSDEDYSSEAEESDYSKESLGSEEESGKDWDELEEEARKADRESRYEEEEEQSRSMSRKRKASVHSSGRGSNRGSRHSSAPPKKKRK

Target: T1, Special AT-rich binding protein 2 (SATB2), GFP-tagged (human) (UniProt Q9UPW6)
T1 sequence: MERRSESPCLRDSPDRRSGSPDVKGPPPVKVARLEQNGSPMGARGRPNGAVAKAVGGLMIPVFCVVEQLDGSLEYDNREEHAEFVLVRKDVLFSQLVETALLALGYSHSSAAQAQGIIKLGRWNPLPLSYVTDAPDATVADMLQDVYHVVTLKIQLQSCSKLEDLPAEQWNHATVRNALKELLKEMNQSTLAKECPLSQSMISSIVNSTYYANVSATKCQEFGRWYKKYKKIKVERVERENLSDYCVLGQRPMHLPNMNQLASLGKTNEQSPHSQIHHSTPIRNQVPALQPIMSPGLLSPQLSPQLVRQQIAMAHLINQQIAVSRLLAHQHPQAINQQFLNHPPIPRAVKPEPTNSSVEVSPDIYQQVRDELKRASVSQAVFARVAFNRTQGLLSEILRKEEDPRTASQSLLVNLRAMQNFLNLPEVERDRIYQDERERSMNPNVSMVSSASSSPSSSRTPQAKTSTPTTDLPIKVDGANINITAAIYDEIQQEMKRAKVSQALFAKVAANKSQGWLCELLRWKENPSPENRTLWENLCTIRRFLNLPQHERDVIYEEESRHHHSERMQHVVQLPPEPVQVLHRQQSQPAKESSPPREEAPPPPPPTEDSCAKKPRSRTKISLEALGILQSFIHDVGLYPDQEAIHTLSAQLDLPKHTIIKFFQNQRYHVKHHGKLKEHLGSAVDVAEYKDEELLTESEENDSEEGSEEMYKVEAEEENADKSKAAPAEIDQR
Test: co-IP; lysate (Pierce IP Lysis Buffer, sonicated) of SATB2-GFP-circ-3×FLAG tagged BEAS-2B cells; Dynabeads Protein G pre-bound to SATB2 or anti-FLAG M2 antibody, overnight at 4 °C, 200 µg lysate protein; western blot

| binding | Substance |
| --- | --- |
| binds | DDX17 (from UniProt Q92841 1-729) |
| binds | SUPT16H (from UniProt Q9Y5B9 1-1047) |
